{"source": "PubChem BioAssay AID1224828 – NIAID, 2016", "test": "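Find genes required for NF-kappaB p65 moving into the nucleus after LPS in mouse macrophages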 (primary screen)", "system": "mouse RAW264.7 G9 macrophage reporter cells (GFP-p65, Tnf promoter-mCherry)", "reagents": "siRNA pool against mouse genes, 100 nM", "timing": "2 days siRNA transfection, then 40 min LPS before fixation", "challenge": "LPS (Salmonella minnesota R595) at 10 ng/ml", "measurement": "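Imaged p65 nuclear translocation ratio, normalised to the plate median, converted to robust z-scores and averaged across two replicates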", "scale": "p65 translocation robust z-score: higher = more nuclear NF-kappaB p65 after LPS than the plate median; nuclear/cytoplasmic p65 ratio: higher = more nuclear NF-kappaB p65", "active means": "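Called active when z exceeds 3.3 or falls under -1.56 (median of Tlr4 controls), giving activity score of at least 50; no calls for control wells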", "meaning of the calls": "active = hit (p65 shift raised or lowered); inactive = no clear change", "note": "This is one part, drawn at random, of about 17,000 reagents. 762 of all reagents (4.5%) were called active. 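Active calls include both raised and lowered p65 entry, mostly lowered; wells with fewer than 50 cells lack a z-score.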 Raw values are not corrected between plates. Unmarked entries are inactive."}
{"target gene":"Zfp84 (zinc finger protein 84)","p65 translocation robust z-score":0.9,"nuclear/cytoplasmic p65 ratio, rep 1":1.59,"nuclear/cytoplasmic p65 ratio, rep 2":1.3,"low cell count flag":"enough cells to score"}
{"target gene":"Herc3 (hect domain and RLD 3)","p65 translocation robust z-score":-0.23,"nuclear/cytoplasmic p65 ratio, rep 1":1.65,"nuclear/cytoplasmic p65 ratio, rep 2":1.48,"low cell count flag":"enough cells to score"}
{"target gene":"Kctd12 (potassium channel tetramerisation domain containing 12)","nuclear/cytoplasmic p65 ratio, rep 1":1.47,"nuclear/cytoplasmic p65 ratio, rep 2":1.26,"low cell count flag":"fewer than 50 cells per well; well left out of scoring"}
{"target gene":"Cdh17 (cadherin 17)","p65 translocation robust z-score":0.4,"nuclear/cytoplasmic p65 ratio, rep 1":1.56,"nuclear/cytoplasmic p65 ratio, rep 2":1.39,"low cell count flag":"enough cells to score"}

In a second layout: entries from further up
Herc3 (hect domain and RLD 3): p65 translocation robust z-score = -0.23; nuclear/cytoplasmic p65 ratio, rep 1 = 1.65; nuclear/cytoplasmic p65 ratio, rep 2 = 1.48; low cell count flag = enough cells to score
Kctd12 (potassium channel tetramerisation domain containing 12): nuclear/cytoplasmic p65 ratio, rep 1 = 1.47; nuclear/cytoplasmic p65 ratio, rep 2 = 1.26; low cell count flag = fewer than 50 cells per well; well left out of scoring

Next reagents follow.
{"target gene":"Lrfn5","p65 translocation robust z-score":1.59,"nuclear/cytoplasmic p65 ratio, rep 1":1.94,"nuclear/cytoplasmic p65 ratio, rep 2":1.8,"low cell count flag":"enough cells to score"}
{"target gene":"Msln (mesothelin)","p65 translocation robust z-score":0.32,"nuclear/cytoplasmic p65 ratio, rep 1":1.54,"nuclear/cytoplasmic p65 ratio, rep 2":1.34,"low cell count flag":"enough cells to score"}
{"target gene":"Nr5a2 (nuclear receptor subfamily 5, group A, member 2)","p65 translocation robust z-score":0.02,"nuclear/cytoplasmic p65 ratio, rep 1":1.48,"nuclear/cytoplasmic p65 ratio, rep 2":1.39,"low cell count flag":"enough cells to score"}
{"target gene":"Stim1 (stromal interaction molecule 1)","p65 translocation robust z-score":-0.9,"nuclear/cytoplasmic p65 ratio, rep 1":1.18,"nuclear/cytoplasmic p65 ratio, rep 2":1.13,"low cell count flag":"enough cells to score"}
{"target gene":"Ring1 (ring finger protein 1)","p65 translocation robust z-score":0.89,"nuclear/cytoplasmic p65 ratio, rep 1":1.69,"nuclear/cytoplasmic p65 ratio, rep 2":1.6,"low cell count flag":"enough cells to score"}
{"target gene":"Pi4k2b (phosphatidylinositol 4-kinase type 2 beta)","p65 translocation robust z-score":"-1.64 (active)","nuclear/cytoplasmic p65 ratio, rep 1":1.38,"nuclear/cytoplasmic p65 ratio, rep 2":1.17,"low cell count flag":"enough cells to score"}
{"target gene":"Tle3 (transducin-like enhancer of split 3)","p65 translocation robust z-score":-0.77,"nuclear/cytoplasmic p65 ratio, rep 1":1.38,"nuclear/cytoplasmic p65 ratio, rep 2":1.44,"low cell count flag":"enough cells to score"}
{"target gene":"Pabpc1 (poly(A) binding protein, cytoplasmic 1)","p65 translocation robust z-score":0.98,"nuclear/cytoplasmic p65 ratio, rep 1":1.57,"nuclear/cytoplasmic p65 ratio, rep 2":1.41,"low cell count flag":"enough cells to score"}
